Changes are numbered by the printed parent chain. These are yes or no findings as the source states them, for the method shown. Some results given as binding are weak or reduced against the parent protein; the word gives no strength.
B1: 001-A09 (antibody, V domains shown)
VH: EVQLLESGGGLVQPGGSLRLSCAASGFTFSSNYMSWVRQAPGKGLEWVSVISGSGGSTYYADSVKGRFTISRDNSKNTLYLQMNSLRAEDTAVYYCARDRGWFDPWGQGTLVTVSS
VL: QSVLTQPPSASGTPGQRVTISCSGSRSNIDNSYVSWYQQLPGTAPKLLIYRNNQRPSGVPDRFSGSKSGTSASLAISGLRSEDEADYYCATWDDSLSGPVFGGGTKLTVLG
B2: 001-B05 (antibody, V domains shown)
VH: EVQLLESGGGLVQPGGSLRLSCAASGFTFSNAWMSWVRQAPGKGLEWVSSISSASGYIYYGDSVKGRFTISRDNSKNTLYLQMNNLRAEDTAVYYCARGTLYGDFDEFWGQGTLVTVSS
VL: QSVLTQPPSASGTPGQRVTISCSGSSSNIGNNAVNWYQQLPGTAPKLLIYGNTNRPSGVPDRFSGSKSGTSASLAISGLRSEDEADYYCQSYDSSLSGYVVFGGGTKLTVLG
B3: 001-B09 (antibody, V domains shown)
VH: EVQLLESGGGLVQPGGSLRLSCAASGFTFSRHAMNWVRQAPGKGLEWVSSISTGSSYIDYADSVKGRFTISRDNSKNTLYLQMNSLRAEDTAVYYCAREKGHYYYGMDVWGQGTLVTVSS
VL: QSVLTQPPSASGTPGQRVTISCTGSSSNIGAGYDVHWYQQLPGTAPKLLIYGNSYRPSGVPDRFSGSKSGTSASLAISGLRSEDEADYYCQSYDTSLSAYVVFGGGTKLTVLG
B4: 001-C03 (antibody, V domains shown)
VH: EVQLLESGGGLVQPGGSLRLSCAASGFTFSNAWMSWVRQAPGKGLEWVSAISVSGINTYYADSVKGRFTISRDNSKNTLYLQMNSLRAEDTAVYYCARDTGSLGVDYWGQGTLVTVSS
VL: QSVLTQPPSASGTPGQRVTISCSGSSSNIGSNTVNWYQQLPGTAPKLLIYRNNQRPSGVPDRFSGSKSGTSASLAISGLRSEDEADYYCQSYDSSLSISVFGGGTKLTVLG
B5: 001-C05 (antibody, V domains shown)
VH: EVQLLESGGGLVQPGGSLRLSCAASGFTFSSNEMSWIRQAPGKGLEWVSVIYSGGSTYYADSVKGRFTISRDNSKNTLYLQMNSLRAEDTAVYYCARREGWLVPFDYWGQGTLVTVSS
VL: B2 VL with N31S, A33T, T53I, N54I, Y92F, S94T, S95T, Y99S, V100I
B6: 001-E06 (antibody, V domains shown)
VH: EVQLLESGGGLVQPGGSLRLSCAASGFTFSSNYMSWVRQAPGKGLEWVALIWYDGSNKYYADSVKGRFTISRDNSKNTLYLQMNSLRAEDTAVYYCAKDPLFDSWGQGTLVTVSS
VL: QSVLTQPPSASGTPGQRVTISCTGRSSNIGAGYDVHWYQQLPGTAPKLLIYDNNKRPSGVPDRFSGSKSGTSASLAISGLRSEDEADYYCAAWDDSLNGPVFGGGTKLTVLG
B7: 001-F02 (antibody, V domains shown)
VH: EVQLLESGGGLVQPGGSLRLSCAASGFTFSDYYMSWVRQAPGKGLEWVANINTDGSEKYYLDSVKGRFTISRDNSKNTLYLQMNSLRAEDTAVYYCAREEYGAFDIWGQGTLVTVSS
VL: B2 VL with N31S, A33T, G51D, T53N, N54K, Y92F, S94R, S95G, Y99S, V100I
B8: 001-F06 (antibody, V domains shown)
VH: EVQLLESGGGLVQPGGSLRLSCAASGFTFSSYAMHWVRQAPGKGLEWVSAISGGATTTYYADSVKGRFTISRDNSKNTLYLQMNSLRAEDTAVYYCAKGGTGDPYYFDYWGQGTLVTVSS
VL: B6 VL with R25S, D52R, K55Q, W93R, S96G, N98S
B9: 001-G10 (antibody, V domains shown)
VH: EVQLLESGGGLVQPGGSLRLSCAASGFTFSAYGMHWVRQAPGKGLEWVAVVSYDGREKHYADSVKGRFTISRDNSKNTLYLQMNSLRAEDTAVYYCARSDGGYDSDSGYYWGQGTLVTVSS
VL: QSVLTQPPSASGTPGQRVTISCSGSTSNIGSNFVYWYQQLPGTAPKLLIYDNNKRPSGVPDRFSGSKSGTSASLAISGLRSEDEADYYCSSYAYSDNILFGGGTKLTVLG
B10: 001-H10 (antibody, V domains shown)
VH: EVQLLESGGGLVQPGGSLRLSCAASGFTFDDYGMSWVRQAPGKGLEWVSVIYSGGSTYYADSVKGRFTISRDNSKNTLYLQMNSLRAEDTAVYYCARDRSSSWYRDGMDVWGQGTLVTVSS
VL: B6 VL with R25S, D52G, N54S, K55N, N98S, P100W
B11: 004-E08 (antibody, V domains shown)
VH: EVQLLESGGGLVQPGGSLRLSCAASGFTFSRYWMHWVRQVPGKGLEWVSGISDSGVVTYYADSVKGRFTISRDNSKNTLYLQMNSLRAEDTAVYYCARAQSVAFDIWGQGTLVTVSS
VL: B6 VL with T23S, R25S, Y33H, D52Y, N53D, N54D, K55L, R56L, N98S, P100W

Each binder was assayed against Cynomolgus TNFR2 (on cynomolgus CD4+ T cells) (cynomolgus monkey (Macaca fascicularis)) (assay: FACS, stimulated cynomolgus CD4+ T cells, % over isotype).

binding, binds:
B1
B2
B3
B4
B5
B6
B7
B8
B9
B10
B11
